Sequences of proteins named here, by UniProt entry; tags and fusion partners are left off. A change or cut given only in a name is not applied to a line headed by its entry.
UniProt Q658Y4: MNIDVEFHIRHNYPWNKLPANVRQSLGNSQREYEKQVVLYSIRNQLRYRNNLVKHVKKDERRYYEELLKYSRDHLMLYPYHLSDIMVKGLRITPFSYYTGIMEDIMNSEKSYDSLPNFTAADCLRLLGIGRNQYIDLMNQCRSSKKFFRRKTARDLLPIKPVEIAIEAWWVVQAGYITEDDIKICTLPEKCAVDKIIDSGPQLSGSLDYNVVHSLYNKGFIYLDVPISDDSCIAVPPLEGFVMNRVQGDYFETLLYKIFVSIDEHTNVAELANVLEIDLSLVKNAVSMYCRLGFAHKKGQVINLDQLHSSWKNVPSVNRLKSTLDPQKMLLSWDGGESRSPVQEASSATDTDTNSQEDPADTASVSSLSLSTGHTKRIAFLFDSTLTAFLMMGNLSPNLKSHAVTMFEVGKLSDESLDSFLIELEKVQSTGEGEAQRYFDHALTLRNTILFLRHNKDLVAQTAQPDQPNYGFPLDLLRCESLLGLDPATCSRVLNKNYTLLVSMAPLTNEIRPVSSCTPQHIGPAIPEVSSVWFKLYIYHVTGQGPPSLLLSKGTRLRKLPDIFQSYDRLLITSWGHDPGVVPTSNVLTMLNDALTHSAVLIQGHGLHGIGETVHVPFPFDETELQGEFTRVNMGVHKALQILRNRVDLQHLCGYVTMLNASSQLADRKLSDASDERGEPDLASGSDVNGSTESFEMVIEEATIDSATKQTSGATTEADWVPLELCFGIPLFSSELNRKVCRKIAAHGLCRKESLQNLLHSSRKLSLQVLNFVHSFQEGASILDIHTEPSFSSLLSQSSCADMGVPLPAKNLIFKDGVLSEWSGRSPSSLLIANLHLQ
UniProt Q5T1M5: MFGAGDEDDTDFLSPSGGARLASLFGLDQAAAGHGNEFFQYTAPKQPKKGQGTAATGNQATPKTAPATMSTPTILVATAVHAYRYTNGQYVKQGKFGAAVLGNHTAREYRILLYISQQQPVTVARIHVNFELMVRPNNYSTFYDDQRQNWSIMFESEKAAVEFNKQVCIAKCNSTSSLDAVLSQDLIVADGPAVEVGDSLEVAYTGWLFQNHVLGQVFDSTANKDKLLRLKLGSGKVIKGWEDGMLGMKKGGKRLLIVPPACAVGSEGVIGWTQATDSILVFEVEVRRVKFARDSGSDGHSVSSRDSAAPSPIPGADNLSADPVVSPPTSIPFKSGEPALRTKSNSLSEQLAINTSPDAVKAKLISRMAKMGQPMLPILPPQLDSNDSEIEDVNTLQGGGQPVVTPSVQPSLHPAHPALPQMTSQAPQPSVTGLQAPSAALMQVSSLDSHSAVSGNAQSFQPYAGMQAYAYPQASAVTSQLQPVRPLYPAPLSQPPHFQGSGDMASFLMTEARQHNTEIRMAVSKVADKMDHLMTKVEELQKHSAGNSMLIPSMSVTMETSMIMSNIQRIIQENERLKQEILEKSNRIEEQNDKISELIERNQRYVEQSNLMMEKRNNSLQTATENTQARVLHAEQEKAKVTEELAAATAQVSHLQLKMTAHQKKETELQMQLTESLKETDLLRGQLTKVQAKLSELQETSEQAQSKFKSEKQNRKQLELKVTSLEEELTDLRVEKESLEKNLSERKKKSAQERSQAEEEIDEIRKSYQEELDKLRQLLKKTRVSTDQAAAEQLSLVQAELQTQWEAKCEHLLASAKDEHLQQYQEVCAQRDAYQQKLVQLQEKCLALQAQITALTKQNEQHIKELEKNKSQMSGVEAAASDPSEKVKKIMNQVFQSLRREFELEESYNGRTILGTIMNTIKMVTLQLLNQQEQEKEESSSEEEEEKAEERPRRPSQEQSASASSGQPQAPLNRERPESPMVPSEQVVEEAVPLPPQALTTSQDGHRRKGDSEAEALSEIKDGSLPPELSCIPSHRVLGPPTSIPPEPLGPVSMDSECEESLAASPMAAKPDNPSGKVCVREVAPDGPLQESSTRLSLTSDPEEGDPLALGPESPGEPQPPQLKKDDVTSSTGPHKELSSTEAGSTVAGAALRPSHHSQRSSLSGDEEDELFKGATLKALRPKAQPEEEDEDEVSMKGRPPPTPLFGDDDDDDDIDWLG
UniProt Q9Y3I1: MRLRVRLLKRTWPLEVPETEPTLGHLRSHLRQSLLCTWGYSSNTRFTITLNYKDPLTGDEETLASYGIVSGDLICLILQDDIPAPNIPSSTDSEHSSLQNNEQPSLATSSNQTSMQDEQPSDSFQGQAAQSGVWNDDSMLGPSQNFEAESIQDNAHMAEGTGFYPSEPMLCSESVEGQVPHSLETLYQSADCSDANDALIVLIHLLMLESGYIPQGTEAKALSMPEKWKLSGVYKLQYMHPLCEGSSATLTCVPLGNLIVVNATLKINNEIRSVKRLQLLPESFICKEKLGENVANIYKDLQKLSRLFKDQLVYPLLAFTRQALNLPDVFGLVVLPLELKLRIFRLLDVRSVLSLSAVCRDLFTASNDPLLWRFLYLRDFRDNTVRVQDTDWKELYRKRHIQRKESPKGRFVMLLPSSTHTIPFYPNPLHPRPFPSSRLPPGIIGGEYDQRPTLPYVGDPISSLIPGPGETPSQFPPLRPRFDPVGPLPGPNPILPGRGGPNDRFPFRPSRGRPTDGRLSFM
UniProt Q6P4F2: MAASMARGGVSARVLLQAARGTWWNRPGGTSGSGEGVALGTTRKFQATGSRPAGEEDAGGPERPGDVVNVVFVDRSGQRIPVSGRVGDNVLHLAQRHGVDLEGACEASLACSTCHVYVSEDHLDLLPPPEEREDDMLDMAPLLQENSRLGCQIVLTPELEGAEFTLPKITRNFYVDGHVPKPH
UniProt Q8TB52: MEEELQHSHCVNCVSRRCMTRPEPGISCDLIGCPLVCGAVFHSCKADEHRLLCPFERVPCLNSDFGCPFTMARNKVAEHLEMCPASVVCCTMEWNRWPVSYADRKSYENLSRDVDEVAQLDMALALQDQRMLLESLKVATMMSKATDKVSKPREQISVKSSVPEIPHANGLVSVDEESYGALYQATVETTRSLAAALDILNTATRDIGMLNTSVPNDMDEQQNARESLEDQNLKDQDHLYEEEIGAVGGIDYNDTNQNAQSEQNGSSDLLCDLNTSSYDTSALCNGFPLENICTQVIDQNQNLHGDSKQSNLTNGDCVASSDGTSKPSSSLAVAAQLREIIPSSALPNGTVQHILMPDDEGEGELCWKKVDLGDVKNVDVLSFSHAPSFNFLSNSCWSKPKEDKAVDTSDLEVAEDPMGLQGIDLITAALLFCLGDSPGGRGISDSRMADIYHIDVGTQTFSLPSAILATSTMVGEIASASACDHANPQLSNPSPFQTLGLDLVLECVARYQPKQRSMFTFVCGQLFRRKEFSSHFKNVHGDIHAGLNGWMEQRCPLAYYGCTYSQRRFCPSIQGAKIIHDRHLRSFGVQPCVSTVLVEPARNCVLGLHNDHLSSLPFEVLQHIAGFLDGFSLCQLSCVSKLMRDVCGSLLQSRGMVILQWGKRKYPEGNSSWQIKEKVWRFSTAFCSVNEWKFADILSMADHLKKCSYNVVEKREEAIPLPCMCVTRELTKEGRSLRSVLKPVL
UniProt Q9HA64: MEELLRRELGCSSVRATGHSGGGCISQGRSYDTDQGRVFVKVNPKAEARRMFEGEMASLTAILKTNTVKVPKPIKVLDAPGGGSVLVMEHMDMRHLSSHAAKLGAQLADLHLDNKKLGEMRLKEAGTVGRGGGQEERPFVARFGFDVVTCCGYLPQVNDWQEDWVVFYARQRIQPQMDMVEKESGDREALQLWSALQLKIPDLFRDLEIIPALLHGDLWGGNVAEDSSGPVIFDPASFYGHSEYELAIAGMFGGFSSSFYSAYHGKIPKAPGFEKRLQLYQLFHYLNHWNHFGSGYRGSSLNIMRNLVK
UniProt Q9Y5Y0: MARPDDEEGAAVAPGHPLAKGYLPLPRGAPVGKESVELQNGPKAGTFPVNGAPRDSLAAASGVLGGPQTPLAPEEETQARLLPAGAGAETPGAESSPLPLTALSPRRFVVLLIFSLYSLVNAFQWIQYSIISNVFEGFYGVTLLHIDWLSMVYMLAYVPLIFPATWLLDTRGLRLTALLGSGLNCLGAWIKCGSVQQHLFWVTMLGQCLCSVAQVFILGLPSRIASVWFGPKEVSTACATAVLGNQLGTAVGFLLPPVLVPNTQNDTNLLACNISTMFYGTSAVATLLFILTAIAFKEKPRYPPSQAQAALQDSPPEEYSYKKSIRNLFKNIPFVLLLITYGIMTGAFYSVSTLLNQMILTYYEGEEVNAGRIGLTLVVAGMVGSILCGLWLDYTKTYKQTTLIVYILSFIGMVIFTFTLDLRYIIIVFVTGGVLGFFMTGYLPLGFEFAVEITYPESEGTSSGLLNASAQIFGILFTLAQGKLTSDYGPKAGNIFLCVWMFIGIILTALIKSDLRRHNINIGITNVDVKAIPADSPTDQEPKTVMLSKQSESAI
UniProt P26885: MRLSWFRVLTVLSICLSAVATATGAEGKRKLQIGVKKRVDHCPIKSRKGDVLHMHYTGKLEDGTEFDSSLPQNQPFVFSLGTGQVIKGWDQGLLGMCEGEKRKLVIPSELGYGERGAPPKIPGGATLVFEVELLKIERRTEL
UniProt P14324: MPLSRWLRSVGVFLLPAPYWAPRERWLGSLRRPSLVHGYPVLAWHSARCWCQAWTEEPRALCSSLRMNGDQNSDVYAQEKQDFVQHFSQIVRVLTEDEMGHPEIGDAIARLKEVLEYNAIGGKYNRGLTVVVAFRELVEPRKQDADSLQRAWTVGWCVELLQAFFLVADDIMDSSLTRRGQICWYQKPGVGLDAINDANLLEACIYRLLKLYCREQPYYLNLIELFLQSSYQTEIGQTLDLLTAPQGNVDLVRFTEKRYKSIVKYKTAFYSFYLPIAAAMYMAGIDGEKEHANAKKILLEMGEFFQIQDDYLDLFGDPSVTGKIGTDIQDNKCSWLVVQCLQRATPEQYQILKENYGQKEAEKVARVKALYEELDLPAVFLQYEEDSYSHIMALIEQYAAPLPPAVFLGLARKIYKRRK
UniProt Q8N3X1: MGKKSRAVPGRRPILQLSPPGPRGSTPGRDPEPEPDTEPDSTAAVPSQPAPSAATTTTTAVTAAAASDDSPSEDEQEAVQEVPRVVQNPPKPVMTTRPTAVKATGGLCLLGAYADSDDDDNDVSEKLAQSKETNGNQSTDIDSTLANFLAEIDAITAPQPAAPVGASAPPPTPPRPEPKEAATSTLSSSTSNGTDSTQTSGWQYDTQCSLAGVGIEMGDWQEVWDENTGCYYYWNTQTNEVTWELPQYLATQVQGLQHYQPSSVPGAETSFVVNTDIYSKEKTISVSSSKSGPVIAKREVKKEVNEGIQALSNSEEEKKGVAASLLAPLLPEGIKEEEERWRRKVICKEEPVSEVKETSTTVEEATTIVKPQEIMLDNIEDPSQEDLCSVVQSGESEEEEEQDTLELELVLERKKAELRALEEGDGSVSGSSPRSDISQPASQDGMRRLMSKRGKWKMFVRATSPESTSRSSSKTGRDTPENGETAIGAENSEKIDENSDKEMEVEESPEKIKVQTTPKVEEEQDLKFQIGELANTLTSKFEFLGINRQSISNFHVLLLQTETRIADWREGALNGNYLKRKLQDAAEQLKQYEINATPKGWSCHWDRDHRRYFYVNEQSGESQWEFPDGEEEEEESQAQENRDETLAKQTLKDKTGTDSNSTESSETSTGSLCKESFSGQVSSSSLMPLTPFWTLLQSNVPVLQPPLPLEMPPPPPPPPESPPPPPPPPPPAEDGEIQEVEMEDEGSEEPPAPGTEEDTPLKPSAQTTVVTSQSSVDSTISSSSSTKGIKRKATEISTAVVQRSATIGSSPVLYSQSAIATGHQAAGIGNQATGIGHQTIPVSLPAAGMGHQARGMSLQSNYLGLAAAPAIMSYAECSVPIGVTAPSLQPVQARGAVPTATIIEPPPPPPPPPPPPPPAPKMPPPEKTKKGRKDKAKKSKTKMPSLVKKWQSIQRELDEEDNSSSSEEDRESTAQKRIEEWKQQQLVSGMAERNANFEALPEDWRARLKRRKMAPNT
UniProt Q52LJ0: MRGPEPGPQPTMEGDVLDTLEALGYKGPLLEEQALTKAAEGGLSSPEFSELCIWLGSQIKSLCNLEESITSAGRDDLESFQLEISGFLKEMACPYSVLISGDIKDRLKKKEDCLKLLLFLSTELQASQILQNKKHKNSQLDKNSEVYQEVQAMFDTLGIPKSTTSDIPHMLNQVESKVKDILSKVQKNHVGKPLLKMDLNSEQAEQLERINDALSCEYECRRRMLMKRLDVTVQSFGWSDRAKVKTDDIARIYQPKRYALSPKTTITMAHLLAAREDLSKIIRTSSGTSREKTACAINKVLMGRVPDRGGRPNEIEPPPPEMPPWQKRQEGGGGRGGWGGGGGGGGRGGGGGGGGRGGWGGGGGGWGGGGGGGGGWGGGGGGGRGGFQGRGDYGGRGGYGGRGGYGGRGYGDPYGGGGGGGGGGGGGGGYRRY
UniProt Q9Y3D6: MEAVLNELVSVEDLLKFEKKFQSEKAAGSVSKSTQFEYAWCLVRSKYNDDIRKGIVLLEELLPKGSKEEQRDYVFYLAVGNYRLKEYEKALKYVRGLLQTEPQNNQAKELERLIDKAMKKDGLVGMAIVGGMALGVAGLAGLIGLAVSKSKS

This is one part of the list.
What follows are targets tested with NCC(=O)Nc1ccc(-n2nc(C(F)(F)F)cc2-c2ccc3c(ccc4ccccc43)c2)cc1 (assay: log2 fold change, soluble protein after heating vs DMSO (PISA); higher = thermal stabilisation; K562 cells, 10 uM, 30 min; active = over 0.2 and 3.5 SD of the protein, either way, in both replicates (recomputed)).
Outline: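 K562 cells at 2×10^6 cells/mL were treated for 30 min with 10 μM compound, and aliquots were heated for 3 min over 48°C-58°C before pooling. Extraction used PBS with 0.5% NP-40 at 4°C, and soluble protein was the supernatant after 21,000xg for 90 min, measured by TMTpro 16plex LC-MS/MS with channel sums equalised. Thermal stability values, relative to control samples and from duplicates, are log2 fold changes.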
With FBXO5 (UniProt Q9UKT4) the log2 fold change was inactive: 0.01. In the case of FEM1B (UniProt Q9UK73), the log2 fold change is reported as inactive: -0.086. For FKBP7 (UniProt Q9Y680), the log2 fold change was inactive: -0.037. For FAM76B (UniProt Q5HYJ3), the log2 fold change was inactive: 0.166. With FIP1L1 (UniProt Q6UN15) the log2 fold change was inactive: 0.04. With FBXO22 (UniProt Q8NEZ5) the log2 fold change was inactive: 0. With FAM91A1 (UniProt Q658Y4) the log2 fold change was inactive: -0.042. In the case of FKBP15 (UniProt Q5T1M5), the log2 fold change is reported as inactive: -0.106. With FKBP3 (UniProt Q00688) the log2 fold change was inactive: 0.037. For FBXO7 (UniProt Q9Y3I1), the log2 fold change was inactive: -0.044. With FDX2 (UniProt Q6P4F2) the log2 fold change was inactive: 0.076. FDFT1 (UniProt P37268) was tested, and the log2 fold change was inactive: 0.035. In the case of FBXL20 (UniProt Q96IG2), the log2 fold change is reported as inactive: 0.016. FKBPL (UniProt Q9UIM3) was tested, and the log2 fold change was inactive: -0.022. For FARS2 (UniProt O95363), the log2 fold change was inactive: 0.012. In the case of FBXO30 (UniProt Q8TB52), the log2 fold change is reported as inactive: -0.007. FHL2 (UniProt Q14192) was tested, and the log2 fold change was inactive: 0. In the case of FECH isoform 2 (UniProt P22830), the log2 fold change is reported as inactive: 0.021. In the case of FAM50A (UniProt Q14320), the log2 fold change is reported as inactive: -0.082. With FBL (UniProt P22087) the log2 fold change was inactive: 0.067. For FBLL1 (UniProt A6NHQ2), the log2 fold change was inactive: 0.08. With FBXO3 (UniProt Q9UK99) the log2 fold change was inactive: -0.013. For FN3KRP (UniProt Q9HA64), the log2 fold change was inactive: 0.014. In the case of FLVCR1 (UniProt Q9Y5Y0), the log2 fold change is reported as inactive: -0.026. FAM8A1 (UniProt Q9UBU6) was tested, and the log2 fold change was inactive: -0.067. For FGFR1OP (UniProt O95684), the log2 fold change was inactive: -0.015. In the case of FKBP14 (UniProt Q9NWM8), the log2 fold change is reported as inactive: 0.007. With FGF13 isoform 3 (UniProt Q92913) the log2 fold change was inactive: -0.041. With FBXO6 (UniProt Q9NRD1) the log2 fold change was inactive: 0.028. With FKBP2 (UniProt P26885) the log2 fold change was inactive: 0.022. For FAM32A (UniProt Q9Y421), the log2 fold change was inactive: -0.055. For FDPS (UniProt P14324), the log2 fold change was inactive: -0.14. For FNBP4 isoform 2 (UniProt Q8N3X1), the log2 fold change was inactive: -0.013. For FAM98B (UniProt Q52LJ0), the log2 fold change was inactive: 0.093. FARSB (UniProt Q9NSD9) was tested, and the log2 fold change was inactive: -0.006. With FAM98A (UniProt Q8NCA5) the log2 fold change was inactive: 0.128. With FAU (UniProt P62861) the log2 fold change was inactive: 0.141. FIS1 (UniProt Q9Y3D6) was tested, and the log2 fold change was inactive: 0.133. For FAM3C (UniProt Q92520), the log2 fold change was inactive: 0.029.
